{"source": "paper PMC13404287", "molecular_target": "T1, Flt3-Flag (murine FLT3) (mouse) (UniProt Q00342)", "T1 sequence": "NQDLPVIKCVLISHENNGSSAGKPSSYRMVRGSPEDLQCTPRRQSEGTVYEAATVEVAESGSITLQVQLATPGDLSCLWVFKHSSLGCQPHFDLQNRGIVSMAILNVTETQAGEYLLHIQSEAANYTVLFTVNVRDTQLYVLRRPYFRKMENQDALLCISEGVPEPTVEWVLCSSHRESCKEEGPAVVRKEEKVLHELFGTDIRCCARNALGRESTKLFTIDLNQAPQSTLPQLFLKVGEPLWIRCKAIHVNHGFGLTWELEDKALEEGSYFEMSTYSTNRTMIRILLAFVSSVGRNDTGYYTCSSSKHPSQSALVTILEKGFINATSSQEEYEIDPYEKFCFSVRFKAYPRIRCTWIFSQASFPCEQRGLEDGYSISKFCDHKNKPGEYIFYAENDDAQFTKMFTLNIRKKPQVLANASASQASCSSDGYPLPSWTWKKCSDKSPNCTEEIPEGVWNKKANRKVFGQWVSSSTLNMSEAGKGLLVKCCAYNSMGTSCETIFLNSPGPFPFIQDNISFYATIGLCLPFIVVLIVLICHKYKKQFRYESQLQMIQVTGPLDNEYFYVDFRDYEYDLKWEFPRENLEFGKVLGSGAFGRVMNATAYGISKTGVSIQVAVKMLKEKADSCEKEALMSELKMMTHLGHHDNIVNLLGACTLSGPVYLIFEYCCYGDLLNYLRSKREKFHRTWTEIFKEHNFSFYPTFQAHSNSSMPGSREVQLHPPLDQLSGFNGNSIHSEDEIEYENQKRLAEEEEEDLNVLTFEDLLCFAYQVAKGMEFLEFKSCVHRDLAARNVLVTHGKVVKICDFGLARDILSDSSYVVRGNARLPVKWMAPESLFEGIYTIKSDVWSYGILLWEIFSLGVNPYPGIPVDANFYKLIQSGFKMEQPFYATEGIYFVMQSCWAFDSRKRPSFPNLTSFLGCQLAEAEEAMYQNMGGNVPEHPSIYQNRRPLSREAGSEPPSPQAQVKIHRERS", "assay": "co-IP; 293T cells co-expressing Flt3-Flag, Stat6-HA and Il4ra-Myc for 24 h; lysed in IP lysis buffer; Anti-Flag Magnetic Beads at 4 °C overnight; five washes; immunoblot", "note": "Results are given in words; binding and its absence hold for the method and conditions named. In cells and extracts the contact can be indirect. Some binding calls cover weakened binding; strength is not graded here. Sequences can lack the tags named with a protein.", "data": [{"binder": "Il4ra-Myc (IL-4Rα) (receptor, UniProt P16382 26-810) IKVLGEPTCFSDYIRTSTCEWFLDSAVDCSSQLCLHYRLMFFEFSENLTCIPRNSASTVCVCHMEMNRPVQSDRYQMELWAEHRQLWQGSFSPSGNVKPLAPDNLTLHTNVSDEWLLTWNNLYPSNNLLYKDLISMVNISREDNPAEFIVYNVTYKEPRLSFPINILMSGVYYTARVRVRSQILTGTWSEWSPSITWYNHFQLPLIQRLPLGVTISCLCIPLFCLFCYFSITKIKKIWWDQIPTPARSPLVAIIIQDAQVPLWDKQTRSQESTKYPHWKTCLDKLLPCLLKHRVKKKTDFPKAAPTKSLQSPGKAGWCPMEVSRTVLWPENVSVSVVRCMELFEAPVQNVEEEEDEIVKEDLSMSPENSGGCGFQESQADIMARLTENLFSDLLEAENGGLGQSALAESCSPLPSGSGQASVSWACLPMGPSEEATCQVTEQPSHPGPLSGSPAQSAPTLACTQVPLVLADNPAYRSFSDCCSPAPNPGELAPEQQQADHLEEEEPPSPADPHSSGPPMQPVESWEQILHMSVLQHGAAAGSTPAPAGGYQEFVQAVKQGAAQDPGVPGVRPSGDPGYKAFSSLLSSNGIRGDTAAAGTDDGHGGYKPFQNPVPNQSPSSVPLFTFGLDTELSPSPLNSDPPKSPPECLGLELGLKGGDWVKAPPPADQVPKPFGDDLGFGIVYSSLTCHLCGHLKQHHSQEEGGQSPIVASPGCGCCYDDRSPSLGSLSGALESCPEGIPPEANLMSAPKTPSNLSGEGKGPGHSPVPSQTTEVPVGALGIAVS", "values": [{"measurement": "binding", "result": "binds"}]}]}
